According to PMC5227109:
No constants are given. Whether binding was seen depends on the method and setting. Some entries that bind do so weakly or less than the wild type. Blank lines part the entries; values can stand above or below the binder they belong to.

Columns and labels:
[1] = molecular target: T1, S. cerevisiae Smc3, recombinant (the Smc3 chain of m1) (S. cerevisiae) (UniProt P47037); assay: cross-linking; XL-MS: 0.4 μM cohesin, 0.8 μM full-length Scc2–Scc4 and 0.8 μM 56-bp dsDNA in 20 mM HEPES pH 7.5, 50 mM NaCl, 5 mM DTT, 5 mM MgCl2, 1 mM ATP, 10% glycerol; 5–8 mM d0/d12 DSS, 28 °C 40 min; xQuest/xProphet, FDR 1%; both purified
T1 sequence: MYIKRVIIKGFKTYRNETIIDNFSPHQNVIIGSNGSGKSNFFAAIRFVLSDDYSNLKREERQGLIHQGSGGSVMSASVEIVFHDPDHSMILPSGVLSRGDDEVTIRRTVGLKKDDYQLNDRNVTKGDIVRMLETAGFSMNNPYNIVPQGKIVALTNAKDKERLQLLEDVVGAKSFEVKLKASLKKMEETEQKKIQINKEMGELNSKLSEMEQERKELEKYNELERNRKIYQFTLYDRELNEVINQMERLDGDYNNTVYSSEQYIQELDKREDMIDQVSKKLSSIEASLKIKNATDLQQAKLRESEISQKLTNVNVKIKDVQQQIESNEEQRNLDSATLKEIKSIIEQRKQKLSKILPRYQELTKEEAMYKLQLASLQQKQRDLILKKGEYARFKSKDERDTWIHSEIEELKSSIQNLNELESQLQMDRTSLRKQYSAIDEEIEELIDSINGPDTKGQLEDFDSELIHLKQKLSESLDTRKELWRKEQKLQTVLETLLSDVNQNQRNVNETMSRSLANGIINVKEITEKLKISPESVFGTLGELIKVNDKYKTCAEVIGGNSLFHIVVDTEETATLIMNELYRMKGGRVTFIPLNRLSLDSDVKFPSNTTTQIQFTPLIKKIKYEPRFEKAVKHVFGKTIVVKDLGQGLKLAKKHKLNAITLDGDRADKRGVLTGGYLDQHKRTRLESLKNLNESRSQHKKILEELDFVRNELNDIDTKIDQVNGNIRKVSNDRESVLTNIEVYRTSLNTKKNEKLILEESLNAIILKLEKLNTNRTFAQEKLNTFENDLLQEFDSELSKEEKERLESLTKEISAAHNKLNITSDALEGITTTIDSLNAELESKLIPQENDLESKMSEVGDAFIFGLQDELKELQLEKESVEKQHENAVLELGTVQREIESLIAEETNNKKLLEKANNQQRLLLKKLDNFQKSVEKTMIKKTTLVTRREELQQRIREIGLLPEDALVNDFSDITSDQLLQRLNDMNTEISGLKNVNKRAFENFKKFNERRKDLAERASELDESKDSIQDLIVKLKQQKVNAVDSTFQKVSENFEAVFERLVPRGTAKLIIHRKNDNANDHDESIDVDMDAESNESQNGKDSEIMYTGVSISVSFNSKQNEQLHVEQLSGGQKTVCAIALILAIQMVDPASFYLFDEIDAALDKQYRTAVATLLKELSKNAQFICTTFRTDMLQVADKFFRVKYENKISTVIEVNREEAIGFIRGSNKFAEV

[2] = molecular target: T2, S. cerevisiae Rad21 (Scc1), recombinant (the Rad21 chain of m1) (S. cerevisiae) (UniProt Q12158); assay: co-purification; Smc1, Smc3, Rad21 (N-terminal double Strep-tag II) and Scc3 co-expressed in Sf21 cells; Strep-Tactin, anion exchange Porous Q, Superose 6 SEC; final buffer 20 mM HEPES pH 7.5, 500 mM NaCl, 2 mM MgCl2, 0.5 mM TCEP
T2 sequence: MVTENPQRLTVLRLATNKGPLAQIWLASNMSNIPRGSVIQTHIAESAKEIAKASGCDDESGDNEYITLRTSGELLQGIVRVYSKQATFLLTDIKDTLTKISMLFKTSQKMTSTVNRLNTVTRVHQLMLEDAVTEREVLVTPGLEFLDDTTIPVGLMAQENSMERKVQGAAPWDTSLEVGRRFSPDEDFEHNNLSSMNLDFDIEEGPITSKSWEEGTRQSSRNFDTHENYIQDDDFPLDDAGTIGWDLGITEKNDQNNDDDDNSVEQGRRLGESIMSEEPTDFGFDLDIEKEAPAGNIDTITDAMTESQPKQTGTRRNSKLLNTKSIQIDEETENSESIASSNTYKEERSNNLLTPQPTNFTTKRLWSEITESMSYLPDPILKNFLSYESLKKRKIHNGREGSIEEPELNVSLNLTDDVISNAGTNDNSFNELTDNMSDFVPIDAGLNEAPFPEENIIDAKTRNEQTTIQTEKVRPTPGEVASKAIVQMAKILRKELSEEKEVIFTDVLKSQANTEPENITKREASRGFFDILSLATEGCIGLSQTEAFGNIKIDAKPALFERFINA

binding [1]: binds
B1: S. cerevisiae Scc2, recombinant (the Scc2 chain of m2) (protein, UniProt Q04002 1-1493)
chain: MSYPGKDKNIPGRIIEALEDLPLSYLVPKDGLAALVNAPMRVSLPFDKTIFTSADDGRDVNINVLGTANSTTSSIKNEAEKERLVFKRPSNFTSSANSVDYVPTNFLEGLSPLAQSVLSTHKGLNDSINIEKKSEIVSRPEAKHKLESVTSNAGNLSFNDNSSNKKTKTSTGVTMTQANLAEQYLNDLKNILDIVGFDQNSAEIGNIEYWLQLPNKKFVLTTNCLTKLQMTIKNITDNPQLSNSIEITWLLRLLDVMVCNIKFSKSSLKMGLDDSMLRYIALLSTIVLFNIFLLGKNDSNLHRESYIMEPVNFLSDLIESLKILTIEYGSLKIEFDTFQEALELLPKYIRNGPFLDDNVTAKLVYIFSDLLMNNDIEATTNIQFQSFWDNVKRISSDILVSLFGSFDQQRGFIIEELLSHIEKLPTKRIQKKLRKVGNQNIYITDFTFTLMSMLENINCYSFCNQMKDIAPENIDLLKNEYKKQEEFLFNIVEHINDTILERFFKNPSALRYVIDNFVQDLLLLISSPQWPVTEKILSSLLKRLLSVYSPSMQVSANIETICLQLIGNIGSTIFDIKCSTRDHEDNNLIKMINYPETLPHFFKSFEECIAYNETIKCRRSATRFLWNLRLGTILILEEYTKDAKEQIITVDNELKKILEQIKDGGLGPELENREADFSTIKLDYFSILHAFELLNLYDPYLKLILSLLAKDKIKLRSTAIKCLSMLASKDKVILSNPMVKETIHRRLNDSSASVKDAILDLVSINSSYFEFYQQINNNYNDDSIMVRKHVLRINEKMYDETNDIVTKVYVIARILMKIEDEEDNIIDMARLILLNRWILKVHEVLDQPEKLKEISSSVLLVMSRVAIMNEKCSQLFDLFLNFYLLNKEAHSKEAYDKITHVLTILTDFLVQKIVELNSDDTNEKNSIVDKQNFLNLLAKFADSTVSFLTKDHITALYPYMVSDEKSDFHYYILQVFRCTFEKLANFKQKFLYDLETTLLSRLPKMNVREIDEAMPLIWSVATHRHDTARVAKACSSCLSHLHPYINKANNEEAAIVVDGKLQRLIYLSTGFARFCFPKPSNDKIAFLQEGETLYEHITKCLLVLSKDKITHVIRRVAVKNLTKLCGNHPKLFNSRHVLHLLDKEFQSDQLDIKLVILESLYDLFLLEERKSVRNTGVNSTLSSNSILKKKLLKTNRVEFANDGVCSALATRFLDNILQLCLLRDLKNSLVAIRLLKLILKFGYTNPSHSIPTVIALFASTSQYIRHVAYELLEDLFEKYETLVFSSLSRGVTKAIHYSIHTDEKYYYKHDHFLSLLEKLCGTGKKNGPKFFKVLKRIMQSYLDDITDLTSTNSSVQKSIFVLCTNISNITFVSQYDLVSLLKTIDLTTDRLKEVIMDEIGDNVSSLSVSEEKLSGIILIQLSLQDLGTYLLHLYGLRDDVLLLDIVEESELKNKQLPAKKPDISKFSAQLENIEQYSSNGKLLTYFRKHVKDT

binding [2]: binds
B2: S. cerevisiae Scc3, recombinant (the Scc3 chain of m1) (protein, UniProt P40541 1-1150)
chain: MTAVRRSTRIRTKSQVIEEDYDDEQNTSAQHVESDKITAKTQHEEEEEQDTGESEESSSEDDYEDQDDDDYVDTATAKRKSRKRKPKSASNTSSKRQKKKPTSAQKSAVSHAPAYHRSKKDQDQYLEIAKDFQPTELFDILSTSEDVSIEELLREWLETYSENRDKFLQEFINLLLNCCGSVARVEDHDVHSNESSNETIGEIQLLFQRQKLHEFYLLISKENKKRKNFKMGPLYQNFAEFMTKLLEVANDLQLLYVESDEDDTQIVTGNLVLDLLTWLSSFSVCKIRCFRYISTLTLYLFQDYLTQQAVNLEKNYLAKLSKQLSLEEKKKRPNNKTLEKLESTIAETQGSKVVIDSIIDNIVKLCFVHRYKDVSDLIRSESMLHLSIWIKNYPEYFLKVTFLKYFGWLLSDNSVSVRLQVTKILPHLIIQNHNSKSTDNSAIRQVFERFKTKILEVAIRDVNLDVRIHSIQVLTEASSLGYLDDSEILIISSLMFDEEFDPFKTSSFNKRSKFLSTVAKFLARVIKEKFDEFIKTHEDLPKEVDGLEVGPVVQVGIFIKILNDSLIYHLKDCAEVDSRTKIRMLTQAAEFLSPYISTHLKTICNLLISDTESNELIQKLQNSANNNSDDEDVDDEELDITPLFPIDRNSTILYLNVFHGLCAGANNPKIQTKDSVKEIVLPLFYDLLNAASIESADILCPLLESFITFSLDDWISIGYETELKKITDKTIKAFMDSTIGNSKVDMKYDIFAKFIHHIHHFEKKELQEKFLNQIATLKIHLKKFLQEKMDPNNSRDDYKDLTCSLYELYINKLTILGRDYPIEVDEELLQLFLNNFVSRIPIMFQDFDDSTAQEINFKMLVLLATWNLEKWREIIEKVRDYENSISKDLRSVWKPIAAIIGRLNTLVISLAATNETFENINSLFYLKWSACTSLMDIIVAIKIFELKLPADATTWRYSMSEQFPFYLHDNASKVLLKIFLYLESLFAKQVDVQLERVADEDANLNDLPETGFFENIETEFLLFTVKLKGLMKLNILDERFASRVALNKEKLGPLFKKIVDDTIMENPEPNKKNIQKAKSNQTQREKAPLQPNSERETDHANTENNDPDIPMTIDLEPIEESSQNNSELAPIEEHPTVVDAIDNSDEITQD
